Measurements: patent US7732666B1, “O-methyltransferase gene from sorghum cloning, expression, transformation and characterization” (priority 2006, dated 2010)
For part of these data: For at least one compound, name, drawing or mass did not settle the structure. Some of these results come from one statement about several compounds together.

By UniProt entry, the sequences of proteins in these tests, tags left out. Chains listed by the source or under a name are the forms on record and can include a tag or linker.
UniProt A8QW53, other isoform, or with tags, fused parts or gaps DUP296-296: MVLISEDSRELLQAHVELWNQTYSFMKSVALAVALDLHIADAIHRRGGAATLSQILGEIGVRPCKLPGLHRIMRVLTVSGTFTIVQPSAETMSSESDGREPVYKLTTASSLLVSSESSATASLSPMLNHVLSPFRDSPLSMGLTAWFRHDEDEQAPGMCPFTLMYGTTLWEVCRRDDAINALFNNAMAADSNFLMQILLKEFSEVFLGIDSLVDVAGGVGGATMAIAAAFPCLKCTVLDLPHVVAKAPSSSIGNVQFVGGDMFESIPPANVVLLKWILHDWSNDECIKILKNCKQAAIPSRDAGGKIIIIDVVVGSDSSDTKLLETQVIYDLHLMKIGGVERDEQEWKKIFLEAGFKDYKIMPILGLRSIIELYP

Key:
SbOMT1 [1] = biological target: T1, SbOMT1 (Sorghum bicolor, UniProt A8QW52); assay: OMT enzymatic assay (radiometric, 14C-SAM) with recombinant SbOMT1; type: biochemical; settings: relative to eugenol = 100%; 30 min at 30° C.
T1 construct: full-length open reading frames for all three OMTs were overexpressed in E. coli as N-terminal polyhistidine fusions; polyhistidine (pET15b) (N); made in house; host or cells: E. coli BL21/DE3
T1 sequence (A8QW52 1-376): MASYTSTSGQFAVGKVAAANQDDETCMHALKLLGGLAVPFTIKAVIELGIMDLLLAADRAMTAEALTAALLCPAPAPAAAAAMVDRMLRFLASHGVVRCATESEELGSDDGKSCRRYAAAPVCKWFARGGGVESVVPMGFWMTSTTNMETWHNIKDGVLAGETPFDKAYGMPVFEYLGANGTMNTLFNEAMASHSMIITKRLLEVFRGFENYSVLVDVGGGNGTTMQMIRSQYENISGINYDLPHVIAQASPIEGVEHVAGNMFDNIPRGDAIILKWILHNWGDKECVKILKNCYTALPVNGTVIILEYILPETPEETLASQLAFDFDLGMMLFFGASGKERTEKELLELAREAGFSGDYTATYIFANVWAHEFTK

SbOMT3 = biological target: T2, SbOMT3 (Sorghum bicolor, UniProt A8QW53, DUP296-296); assay: GC-MS analysis of products of recombinant SbOMT3 reacted with resveratrol; type: biochemical
T2 construct: full-length open reading frames for all three OMTs were overexpressed in E. coli as N-terminal polyhistidine fusions; polyhistidine (pET15b) (N); made in house; host or cells: E. coli BL21/DE3

SbOMT1 [2] = biological target: T1, SbOMT1; assay: GC-MS analysis of products of recombinant SbOMT1 reacted with resveratrol; type: biochemical
Description: The products from these reactions were then chemically analyzed by gas chromatography/mass spectroscopy. […] Thus, only about 2% of the product obtained was pterostilbene; 88% was 3,5-dihydroxy-4′-methoxystilbene (FIG. 7B).

[3] = system: Botrytis cinerea, Cladosporium cucumerinum, Pellicularia sasakii, Piricularia oryzae, and Plasmopora viticola; settings: Langcake et al. 1979; cited from earlier work

SMILES | Relative Activity (%) of Recombinant SbOMT1 (SbOMT1 [1]) | share of the product obtained from reaction of SbOMT3 with resveratrol (SbOMT3) | share of the product obtained from reaction of SbOMT1 with resveratrol (SbOMT1 [2]) | fungitoxicity against plant pathogens [3]
Oc1ccccc1O [Catechol] | <1.0 <1.0% | – | – | –
CCCCCc1cc(O)cc(O)c1 [5-n-Pentyl-resorcinol] | < 1.0% | – | – | –
Oc1cccc(O)c1 [Resorcinol] | < 1.0% | – | – | –
COc1cc(/C=C/c2ccc(O)cc2)cc(OC)c1 [Pterostilbene] | – | 96% | about 2% | more fungitoxic than resveratrol
